Results deposited as PubChem BioAssay AID504774 (Drosophila RNAi Screening Center, 2011)
Aim: 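Genes required for cells to withstand methyl methanesulphonate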 (primary screen). Cells: Drosophila Kc167 cells. Reagents: long dsRNA against Drosophila genes, about 0.25 µg dsRNA per well. Time to read-out: about 6 days: 3 days knock-down, then 3 days with or without MMS. Challenge: methyl methanesulphonate 0.004% (w/v) for 3 days after knock-down. Detection: 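ATP-dependent luminescence as a measure of live cells in MMS-exposed wells, quantile normalised within each plate, with replicate values also given as a mean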. Reading the numbers: mean viability with MMS: higher = more surviving cells after MMS.
In all, the deposit lists about 23,000 reagents; below is an unselected part of those that have a named target and a result. 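Values are quantile-normalised luminescence on an arbitrary scale; higher means more cells surviving MMS.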 Further read-outs or replicates are left out here.

| predicted target | PubChem SID | mean viability with MMS |
| --- | --- | --- |
| CG3690 (GeneID 31047) | SID104197962 | 3.71e6 |
| CG3690 (GeneID 31047) | SID104198433 | 3.68e6 |
| Gs2 (GeneID 32087) | SID104200042 | 3.55e6 |
| CG13255 (GeneID 50109) | SID104191494 | 3.57e6 |
| CG7650 (GeneID 39694) | SID104190690 | 3.57e6 |
| Syx4 (GeneID 31269) | SID104198378 | 3.47e6 |
| Shmt (GeneID 31524) | SID104198056 | 3.42e6 |
| ND4 (retired record) (GeneID 192476) | SID104201061 | 3.51e6 |
| Femcoat (GeneID 31367) | SID104197853 | 3.70e6 |
| IFT52 (GeneID 33917) | SID104183063 | 3.62e6 |
| CG30050 (GeneID 246417) | SID104185134 | 3.58e6 |
| PAN2 (GeneID 35893) | SID104186907 | 3.44e6 |
| PPO1 (GeneID 37044) | SID104185721 | 3.62e6 |
| CycB (GeneID 37618) | SID104184397 | 3.40e6 |
| Hrd3 (GeneID 42806) | SID104193948 | 3.30e6 |
| GstE2 (GeneID 37107) | SID104186464 | 3.60e6 |
| CG8526 (GeneID 41208) | SID104196230 | 3.52e6 |
| Lcch3 (GeneID 32554) | SID104200049 | 3.54e6 |
| Lcch3 (GeneID 32554) | SID104201719 | 3.64e6 |
| CG6847 (GeneID 32778) | SID104199005 | 3.55e6 |
| CG6847 (GeneID 32778) | SID104199801 | 3.58e6 |
| Vps36 (GeneID 39523) | SID104189577 | 3.41e6 |
| CG13810 (GeneID 38278) | SID104188136 | 3.73e6 |
| CG13810 (GeneID 38278) | SID104202197 | 3.52e6 |
| CG32037 (GeneID 326183) | SID104190155 | 3.76e6 |
| hang (GeneID 32613) | SID104199693 | 3.27e6 |
| hang (GeneID 32613) | SID104199694 | 2.84e6 |
| hang (GeneID 32613) | SID104202573 | 3.77e6 |
| Cpr65Eb (GeneID 38774) | SID104190818 | 3.44e6 |
| SA2 (GeneID 38167) | SID104188177 | 3.69e6 |
| Dop2R (GeneID 33007) | SID104200475 | 3.81e6 |
| Dop2R (GeneID 33007) | SID104200478 | 3.60e6 |
| Alp1 (GeneID 40372) | SID104191573 | 3.47e6 |
| Mip (GeneID 39933) | SID104190431 | 3.46e6 |
| ple (GeneID 38746) | SID104191175 | 3.33e6 |
| DNaseII (GeneID 48228) | SID104196102 | 3.65e6 |
| Fpgs1 (GeneID 32212) | SID104199649 | 3.48e6 |
| CG32987 (GeneID 318273) | SID104201856 | 3.15e6 |
| CG10802 (GeneID 31318) | SID104197554 | 3.59e6 |
| Spindly (GeneID 33578) | SID104180222 | 3.25e6 |
| ci (GeneID 43767) | SID104196964 | 3.68e6 |
| Mst57Db (GeneID 43122) | SID104201266 | 3.54e6 |
| yellow-f2 (GeneID 41596) | SID104196164 | 3.57e6 |
| CG15199 (GeneID 32051) | SID104199438 | 3.48e6 |
| JMJD6 (GeneID 42616) | SID104195579 | 3.44e6 |
| Nubp2 (GeneID 40282) | SID104191550 | 3.47e6 |

Sorted by “mean viability with MMS” (ascending): 3 of the entries above
| predicted target | PubChem SID | mean viability with MMS |
| --- | --- | --- |
| hang (GeneID 32613) | SID104199694 | 2.84e6 |
| Cpr65Eb (GeneID 38774) | SID104190818 | 3.44e6 |
| hang (GeneID 32613) | SID104202573 | 3.77e6 |
